Our source for the log2 fold change values is the supplement of paper PMC12819154, “High-throughput peptide-centric local stability assay extends protein–ligand identification to membrane proteins, tissues and bacteria” (Nature Structural & Molecular Biology, 2025).

Amino acid sequences for entries named in this document (tags omitted). A change or cut given only in a name is not applied to a line headed by its entry.
UniProt P41091, whole entry: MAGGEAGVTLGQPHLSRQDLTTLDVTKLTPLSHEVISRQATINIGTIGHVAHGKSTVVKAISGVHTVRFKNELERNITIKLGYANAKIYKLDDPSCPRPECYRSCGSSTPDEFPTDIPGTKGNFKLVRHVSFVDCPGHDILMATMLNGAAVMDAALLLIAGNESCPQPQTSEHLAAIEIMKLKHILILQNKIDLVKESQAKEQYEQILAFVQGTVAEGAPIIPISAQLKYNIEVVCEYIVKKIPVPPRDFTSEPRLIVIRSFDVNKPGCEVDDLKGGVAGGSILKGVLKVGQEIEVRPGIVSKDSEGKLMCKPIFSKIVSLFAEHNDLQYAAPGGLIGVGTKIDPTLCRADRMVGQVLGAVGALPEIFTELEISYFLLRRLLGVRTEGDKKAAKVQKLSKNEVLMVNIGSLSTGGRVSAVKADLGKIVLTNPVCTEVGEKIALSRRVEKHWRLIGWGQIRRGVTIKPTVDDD
UniProt P28702: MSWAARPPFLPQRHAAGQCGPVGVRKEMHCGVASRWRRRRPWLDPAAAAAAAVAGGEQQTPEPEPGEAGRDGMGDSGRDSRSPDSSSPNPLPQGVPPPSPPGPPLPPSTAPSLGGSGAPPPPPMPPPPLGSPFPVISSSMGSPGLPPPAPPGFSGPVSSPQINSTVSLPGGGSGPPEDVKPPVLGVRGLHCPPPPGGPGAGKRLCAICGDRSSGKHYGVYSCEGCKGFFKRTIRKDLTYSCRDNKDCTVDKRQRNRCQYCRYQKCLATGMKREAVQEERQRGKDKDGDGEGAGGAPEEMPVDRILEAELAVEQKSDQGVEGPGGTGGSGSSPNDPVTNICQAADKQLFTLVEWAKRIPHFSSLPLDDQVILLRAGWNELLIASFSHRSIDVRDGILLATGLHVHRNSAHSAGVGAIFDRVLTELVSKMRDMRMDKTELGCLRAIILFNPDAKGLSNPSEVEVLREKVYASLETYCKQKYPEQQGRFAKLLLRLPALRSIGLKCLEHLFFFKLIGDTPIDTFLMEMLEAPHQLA
UniProt P42765: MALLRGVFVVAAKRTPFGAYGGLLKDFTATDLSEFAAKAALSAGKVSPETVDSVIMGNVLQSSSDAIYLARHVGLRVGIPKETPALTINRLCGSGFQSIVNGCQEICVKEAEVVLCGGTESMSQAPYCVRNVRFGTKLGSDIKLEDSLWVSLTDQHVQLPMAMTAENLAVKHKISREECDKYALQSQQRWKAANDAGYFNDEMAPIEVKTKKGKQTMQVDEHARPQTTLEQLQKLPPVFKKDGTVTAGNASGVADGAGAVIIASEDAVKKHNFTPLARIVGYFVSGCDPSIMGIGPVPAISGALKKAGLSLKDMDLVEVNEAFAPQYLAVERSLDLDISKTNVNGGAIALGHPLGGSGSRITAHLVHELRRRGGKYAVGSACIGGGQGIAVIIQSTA
UniProt P28715: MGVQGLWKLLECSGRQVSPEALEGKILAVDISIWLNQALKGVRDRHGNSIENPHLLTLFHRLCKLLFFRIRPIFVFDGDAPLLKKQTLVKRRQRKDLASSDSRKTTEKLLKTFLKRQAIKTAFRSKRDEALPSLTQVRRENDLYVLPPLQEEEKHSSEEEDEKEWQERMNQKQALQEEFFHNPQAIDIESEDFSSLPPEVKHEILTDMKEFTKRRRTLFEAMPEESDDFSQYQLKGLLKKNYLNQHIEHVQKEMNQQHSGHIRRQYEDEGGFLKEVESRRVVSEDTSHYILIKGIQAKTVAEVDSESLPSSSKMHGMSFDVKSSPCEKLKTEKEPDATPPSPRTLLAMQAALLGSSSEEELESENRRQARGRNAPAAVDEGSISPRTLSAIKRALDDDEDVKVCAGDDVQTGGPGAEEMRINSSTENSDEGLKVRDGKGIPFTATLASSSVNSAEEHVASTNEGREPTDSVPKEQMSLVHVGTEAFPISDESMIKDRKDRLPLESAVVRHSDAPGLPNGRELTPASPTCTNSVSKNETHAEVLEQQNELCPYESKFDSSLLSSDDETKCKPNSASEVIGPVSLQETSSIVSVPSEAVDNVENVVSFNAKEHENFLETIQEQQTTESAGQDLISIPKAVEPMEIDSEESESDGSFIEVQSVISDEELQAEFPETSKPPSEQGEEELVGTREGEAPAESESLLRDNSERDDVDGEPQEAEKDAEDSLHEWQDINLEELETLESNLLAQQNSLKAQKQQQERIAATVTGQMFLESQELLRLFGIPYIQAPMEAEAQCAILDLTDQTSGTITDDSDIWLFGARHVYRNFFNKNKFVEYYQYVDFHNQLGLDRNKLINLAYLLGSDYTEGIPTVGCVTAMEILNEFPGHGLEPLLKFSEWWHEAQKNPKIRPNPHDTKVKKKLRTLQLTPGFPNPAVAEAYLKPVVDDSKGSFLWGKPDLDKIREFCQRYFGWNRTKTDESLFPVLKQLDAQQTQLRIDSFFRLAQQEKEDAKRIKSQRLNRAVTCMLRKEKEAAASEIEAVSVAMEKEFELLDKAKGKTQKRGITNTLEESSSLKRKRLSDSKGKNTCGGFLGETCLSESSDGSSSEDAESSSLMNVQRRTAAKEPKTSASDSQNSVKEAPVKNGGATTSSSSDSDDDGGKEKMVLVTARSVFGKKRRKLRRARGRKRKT
UniProt P35237: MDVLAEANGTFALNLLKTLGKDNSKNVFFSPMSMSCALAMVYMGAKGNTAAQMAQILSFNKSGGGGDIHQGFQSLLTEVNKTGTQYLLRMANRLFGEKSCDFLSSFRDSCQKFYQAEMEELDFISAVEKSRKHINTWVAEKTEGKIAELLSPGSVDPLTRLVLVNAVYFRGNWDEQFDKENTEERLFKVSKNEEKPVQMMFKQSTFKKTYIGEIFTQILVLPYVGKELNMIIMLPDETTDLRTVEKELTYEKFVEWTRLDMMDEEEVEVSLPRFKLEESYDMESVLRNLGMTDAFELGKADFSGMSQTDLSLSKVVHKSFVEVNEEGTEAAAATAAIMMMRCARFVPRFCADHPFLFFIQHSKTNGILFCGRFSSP
UniProt P35789: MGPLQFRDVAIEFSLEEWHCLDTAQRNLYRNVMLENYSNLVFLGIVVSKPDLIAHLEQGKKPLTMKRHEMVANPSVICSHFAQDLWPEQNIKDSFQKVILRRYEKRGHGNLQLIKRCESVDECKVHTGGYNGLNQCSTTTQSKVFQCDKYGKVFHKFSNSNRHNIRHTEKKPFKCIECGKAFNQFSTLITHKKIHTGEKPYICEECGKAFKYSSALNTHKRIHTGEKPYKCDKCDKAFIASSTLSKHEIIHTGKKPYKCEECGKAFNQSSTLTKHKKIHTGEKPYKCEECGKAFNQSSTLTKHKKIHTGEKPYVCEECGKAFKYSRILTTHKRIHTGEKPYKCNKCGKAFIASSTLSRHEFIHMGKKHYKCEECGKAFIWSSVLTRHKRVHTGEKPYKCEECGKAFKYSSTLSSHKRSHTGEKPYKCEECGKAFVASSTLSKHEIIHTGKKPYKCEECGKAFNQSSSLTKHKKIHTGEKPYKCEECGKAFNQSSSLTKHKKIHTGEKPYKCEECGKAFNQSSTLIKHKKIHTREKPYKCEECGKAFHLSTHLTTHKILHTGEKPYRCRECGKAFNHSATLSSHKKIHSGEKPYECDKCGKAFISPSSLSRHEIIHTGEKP
UniProt P35711: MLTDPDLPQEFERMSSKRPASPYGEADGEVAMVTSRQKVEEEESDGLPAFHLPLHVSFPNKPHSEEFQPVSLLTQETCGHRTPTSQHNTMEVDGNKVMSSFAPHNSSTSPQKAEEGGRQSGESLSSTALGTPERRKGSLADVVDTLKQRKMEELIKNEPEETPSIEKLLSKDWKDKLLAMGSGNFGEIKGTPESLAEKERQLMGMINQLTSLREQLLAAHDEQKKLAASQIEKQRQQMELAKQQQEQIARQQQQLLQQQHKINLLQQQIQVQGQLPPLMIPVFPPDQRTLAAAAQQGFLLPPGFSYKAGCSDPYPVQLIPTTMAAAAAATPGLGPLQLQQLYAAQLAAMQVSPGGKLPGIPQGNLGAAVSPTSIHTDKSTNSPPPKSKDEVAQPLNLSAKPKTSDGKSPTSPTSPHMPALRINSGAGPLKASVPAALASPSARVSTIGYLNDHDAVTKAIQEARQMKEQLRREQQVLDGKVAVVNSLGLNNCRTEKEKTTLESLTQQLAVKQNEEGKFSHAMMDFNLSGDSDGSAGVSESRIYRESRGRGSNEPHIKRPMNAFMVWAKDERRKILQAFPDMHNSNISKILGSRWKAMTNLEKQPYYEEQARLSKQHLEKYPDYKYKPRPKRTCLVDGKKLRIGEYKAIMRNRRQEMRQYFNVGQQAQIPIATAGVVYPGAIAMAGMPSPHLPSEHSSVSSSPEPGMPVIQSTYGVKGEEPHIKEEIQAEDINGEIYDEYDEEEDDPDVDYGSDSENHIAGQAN
UniProt P35611: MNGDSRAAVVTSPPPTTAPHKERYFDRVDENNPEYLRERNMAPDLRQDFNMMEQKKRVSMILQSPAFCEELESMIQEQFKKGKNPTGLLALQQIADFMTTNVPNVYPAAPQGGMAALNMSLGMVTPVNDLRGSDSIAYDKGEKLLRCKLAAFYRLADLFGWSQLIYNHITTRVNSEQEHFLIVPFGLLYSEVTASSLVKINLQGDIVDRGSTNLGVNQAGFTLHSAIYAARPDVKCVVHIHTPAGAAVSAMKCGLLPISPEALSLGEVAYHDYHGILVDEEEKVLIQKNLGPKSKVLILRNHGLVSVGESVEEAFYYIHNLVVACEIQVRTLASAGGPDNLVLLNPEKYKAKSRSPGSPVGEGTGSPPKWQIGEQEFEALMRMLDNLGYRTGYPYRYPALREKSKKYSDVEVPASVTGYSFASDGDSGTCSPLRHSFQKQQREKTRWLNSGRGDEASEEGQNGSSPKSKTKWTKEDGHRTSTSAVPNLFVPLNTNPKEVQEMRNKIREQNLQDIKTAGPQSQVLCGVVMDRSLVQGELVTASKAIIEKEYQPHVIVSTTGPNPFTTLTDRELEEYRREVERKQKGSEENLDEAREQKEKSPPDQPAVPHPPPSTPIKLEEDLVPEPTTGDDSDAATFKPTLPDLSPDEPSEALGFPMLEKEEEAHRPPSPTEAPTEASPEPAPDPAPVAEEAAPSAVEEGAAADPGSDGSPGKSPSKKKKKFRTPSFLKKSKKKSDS

The other results are listed elsewhere or left out. Most entries show no effect beyond the scatter of the controls.

Compound in the experiment: Cc1nc(Nc2ncc(C(=O)Nc3c(C)cccc3Cl)s2)cc(N2CCN(CCO)CC2)n1 [dasatinib]
The experiment in a line: log2 fold change of tryptic peptide abundance, ligand vs vehicle (limited proteolysis) (log2 ratio); higher = more trypsin-susceptible (destabilized). To be noted: ligand concentration: 5 uM; sample: K562 cleared lysate.
Take “EIF2S3 (peptide sequence: VGQEIEVRPGIVSKDSEGK, peptide start residue: 290) (UniProt P41091)”: the log2 fold change is -0.543.
The figure for “RXRB (peptide sequence: DKDGDGEGAGGAPEEMPVDR, peptide start residue: 284) (UniProt P28702)” is 0.511; for “ACAA2 (peptide sequence: ISREECDKYALQSQQR, peptide start residue: 174) (UniProt P42765)” it is -0.00204; for “ERCC5 (peptide sequence: QYEDEGGFLKEVESR, peptide start residue: 265) (UniProt P28715)” it is 0.527.
The figure for “SERPINB6 (peptide sequence: SCDFLSSFR, peptide start residue: 99) (UniProt P35237)” is 0.168; for “ZNF93 (peptide sequence: AFHLSTHLTTHK, peptide start residue: 545) (UniProt P35789)” it is 1.29; for “SOX5 (peptide sequence: VSTIGYLNDHDAVTK, peptide start residue: 444) (UniProt P35711)” it is 0.169.
Regarding “ADD1 (peptide sequence: QKGSEENLDEAR, peptide start residue: 583) (UniProt P35611)”, the log2 fold change was 0.18.
